{"sequences": {"note": "Protein sequences, listed by entry. Tags and fused reporters are not part of them.", "UniProt P35580": "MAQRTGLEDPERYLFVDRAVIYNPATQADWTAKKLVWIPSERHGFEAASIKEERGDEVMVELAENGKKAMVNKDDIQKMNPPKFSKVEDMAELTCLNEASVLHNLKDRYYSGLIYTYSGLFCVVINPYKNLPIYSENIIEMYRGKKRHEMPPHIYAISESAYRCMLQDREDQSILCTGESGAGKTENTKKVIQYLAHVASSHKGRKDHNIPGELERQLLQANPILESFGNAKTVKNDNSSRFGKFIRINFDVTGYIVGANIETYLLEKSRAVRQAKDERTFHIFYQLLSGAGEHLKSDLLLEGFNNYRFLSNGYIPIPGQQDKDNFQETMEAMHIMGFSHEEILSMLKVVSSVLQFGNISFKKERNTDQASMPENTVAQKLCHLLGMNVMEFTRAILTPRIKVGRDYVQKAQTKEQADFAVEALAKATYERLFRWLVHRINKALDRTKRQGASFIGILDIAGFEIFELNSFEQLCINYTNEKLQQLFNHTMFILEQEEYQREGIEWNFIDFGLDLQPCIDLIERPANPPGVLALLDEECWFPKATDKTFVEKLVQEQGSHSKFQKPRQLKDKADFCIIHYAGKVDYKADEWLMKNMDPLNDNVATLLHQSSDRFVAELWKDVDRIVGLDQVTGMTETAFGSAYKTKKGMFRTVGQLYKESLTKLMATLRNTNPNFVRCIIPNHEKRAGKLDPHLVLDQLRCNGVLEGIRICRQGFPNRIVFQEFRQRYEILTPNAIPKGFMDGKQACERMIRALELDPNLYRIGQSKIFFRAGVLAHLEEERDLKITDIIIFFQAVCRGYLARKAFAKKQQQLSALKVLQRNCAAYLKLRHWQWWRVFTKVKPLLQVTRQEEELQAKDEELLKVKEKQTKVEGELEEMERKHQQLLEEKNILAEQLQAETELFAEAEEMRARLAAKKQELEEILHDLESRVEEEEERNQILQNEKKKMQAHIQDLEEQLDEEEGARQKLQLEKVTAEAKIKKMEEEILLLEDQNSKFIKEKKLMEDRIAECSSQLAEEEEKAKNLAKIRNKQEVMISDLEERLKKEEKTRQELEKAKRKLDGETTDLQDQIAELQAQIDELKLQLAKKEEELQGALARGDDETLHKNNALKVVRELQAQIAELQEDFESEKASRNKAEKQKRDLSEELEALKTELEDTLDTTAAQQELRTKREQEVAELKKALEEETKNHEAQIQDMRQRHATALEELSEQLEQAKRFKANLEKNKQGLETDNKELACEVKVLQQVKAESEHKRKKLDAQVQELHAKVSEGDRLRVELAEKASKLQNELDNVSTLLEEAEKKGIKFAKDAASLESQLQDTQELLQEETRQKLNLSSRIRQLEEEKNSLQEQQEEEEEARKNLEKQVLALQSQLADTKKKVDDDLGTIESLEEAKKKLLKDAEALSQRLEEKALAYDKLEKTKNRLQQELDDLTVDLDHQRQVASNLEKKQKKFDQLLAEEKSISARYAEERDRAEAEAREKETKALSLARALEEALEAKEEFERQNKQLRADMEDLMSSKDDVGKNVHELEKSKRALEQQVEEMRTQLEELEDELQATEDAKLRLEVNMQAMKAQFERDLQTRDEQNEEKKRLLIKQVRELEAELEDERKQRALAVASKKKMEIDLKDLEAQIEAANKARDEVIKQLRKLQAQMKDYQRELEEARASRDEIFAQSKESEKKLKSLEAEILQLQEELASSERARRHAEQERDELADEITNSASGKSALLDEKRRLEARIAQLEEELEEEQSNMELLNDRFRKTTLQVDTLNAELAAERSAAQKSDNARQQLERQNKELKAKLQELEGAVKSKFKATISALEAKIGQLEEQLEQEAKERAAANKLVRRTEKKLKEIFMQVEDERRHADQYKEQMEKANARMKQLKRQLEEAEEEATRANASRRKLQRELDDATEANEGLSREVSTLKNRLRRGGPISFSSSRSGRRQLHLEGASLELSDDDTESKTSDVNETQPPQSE"}, "source": "paper PMC10575922", "target": "T1, EGFP-tagged wild-type PKP2 (human) (UniProt Q99959)", "T1 sequence": "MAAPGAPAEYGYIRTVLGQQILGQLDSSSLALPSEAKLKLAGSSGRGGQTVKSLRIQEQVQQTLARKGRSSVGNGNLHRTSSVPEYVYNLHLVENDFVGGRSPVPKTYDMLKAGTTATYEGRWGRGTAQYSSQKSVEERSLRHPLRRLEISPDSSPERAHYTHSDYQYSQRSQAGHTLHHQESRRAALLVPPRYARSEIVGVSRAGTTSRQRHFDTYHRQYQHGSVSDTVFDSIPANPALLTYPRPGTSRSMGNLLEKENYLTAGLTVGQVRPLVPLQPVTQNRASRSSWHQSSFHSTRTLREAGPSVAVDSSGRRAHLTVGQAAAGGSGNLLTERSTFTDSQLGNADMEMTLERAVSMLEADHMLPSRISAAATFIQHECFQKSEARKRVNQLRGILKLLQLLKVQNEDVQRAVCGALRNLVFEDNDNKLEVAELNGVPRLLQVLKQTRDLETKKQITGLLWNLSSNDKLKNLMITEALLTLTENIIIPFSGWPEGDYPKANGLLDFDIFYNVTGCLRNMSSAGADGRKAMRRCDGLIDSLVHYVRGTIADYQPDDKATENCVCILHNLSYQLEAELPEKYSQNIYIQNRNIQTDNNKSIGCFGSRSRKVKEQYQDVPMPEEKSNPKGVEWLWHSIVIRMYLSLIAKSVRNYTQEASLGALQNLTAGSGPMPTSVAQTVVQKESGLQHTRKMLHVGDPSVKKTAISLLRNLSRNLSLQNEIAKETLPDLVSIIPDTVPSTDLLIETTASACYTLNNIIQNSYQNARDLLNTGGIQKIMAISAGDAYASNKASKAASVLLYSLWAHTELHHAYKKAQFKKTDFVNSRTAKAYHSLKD", "test": "co-IP; HEK293T lysate in NP-40 buffer (150 mM NaCl, 50 mM Tris-HCl pH 8.0, 1% NP-40); rat IgG1 anti-EGFP on Dynabeads A, 1 mg protein, overnight at 4 °C; western blot for MYH10 and EGFP", "note": "These are yes or no findings as the source states them, for the method shown. In cells and extracts the contact can be indirect. Some binding calls cover weakened binding; strength is not graded here. Sequences can lack the tags named with a protein.", "data": [{"substance": "myosin 10 (MYH10) (from UniProt P35580 1-1976)", "values": [{"measurement": "binding", "result": "binds"}]}]}
